Library screen at single concentrations

Amino acid sequences for entries named in this document (tags omitted). Residues count along the entry.
UniProt I6X8D2, whole entry: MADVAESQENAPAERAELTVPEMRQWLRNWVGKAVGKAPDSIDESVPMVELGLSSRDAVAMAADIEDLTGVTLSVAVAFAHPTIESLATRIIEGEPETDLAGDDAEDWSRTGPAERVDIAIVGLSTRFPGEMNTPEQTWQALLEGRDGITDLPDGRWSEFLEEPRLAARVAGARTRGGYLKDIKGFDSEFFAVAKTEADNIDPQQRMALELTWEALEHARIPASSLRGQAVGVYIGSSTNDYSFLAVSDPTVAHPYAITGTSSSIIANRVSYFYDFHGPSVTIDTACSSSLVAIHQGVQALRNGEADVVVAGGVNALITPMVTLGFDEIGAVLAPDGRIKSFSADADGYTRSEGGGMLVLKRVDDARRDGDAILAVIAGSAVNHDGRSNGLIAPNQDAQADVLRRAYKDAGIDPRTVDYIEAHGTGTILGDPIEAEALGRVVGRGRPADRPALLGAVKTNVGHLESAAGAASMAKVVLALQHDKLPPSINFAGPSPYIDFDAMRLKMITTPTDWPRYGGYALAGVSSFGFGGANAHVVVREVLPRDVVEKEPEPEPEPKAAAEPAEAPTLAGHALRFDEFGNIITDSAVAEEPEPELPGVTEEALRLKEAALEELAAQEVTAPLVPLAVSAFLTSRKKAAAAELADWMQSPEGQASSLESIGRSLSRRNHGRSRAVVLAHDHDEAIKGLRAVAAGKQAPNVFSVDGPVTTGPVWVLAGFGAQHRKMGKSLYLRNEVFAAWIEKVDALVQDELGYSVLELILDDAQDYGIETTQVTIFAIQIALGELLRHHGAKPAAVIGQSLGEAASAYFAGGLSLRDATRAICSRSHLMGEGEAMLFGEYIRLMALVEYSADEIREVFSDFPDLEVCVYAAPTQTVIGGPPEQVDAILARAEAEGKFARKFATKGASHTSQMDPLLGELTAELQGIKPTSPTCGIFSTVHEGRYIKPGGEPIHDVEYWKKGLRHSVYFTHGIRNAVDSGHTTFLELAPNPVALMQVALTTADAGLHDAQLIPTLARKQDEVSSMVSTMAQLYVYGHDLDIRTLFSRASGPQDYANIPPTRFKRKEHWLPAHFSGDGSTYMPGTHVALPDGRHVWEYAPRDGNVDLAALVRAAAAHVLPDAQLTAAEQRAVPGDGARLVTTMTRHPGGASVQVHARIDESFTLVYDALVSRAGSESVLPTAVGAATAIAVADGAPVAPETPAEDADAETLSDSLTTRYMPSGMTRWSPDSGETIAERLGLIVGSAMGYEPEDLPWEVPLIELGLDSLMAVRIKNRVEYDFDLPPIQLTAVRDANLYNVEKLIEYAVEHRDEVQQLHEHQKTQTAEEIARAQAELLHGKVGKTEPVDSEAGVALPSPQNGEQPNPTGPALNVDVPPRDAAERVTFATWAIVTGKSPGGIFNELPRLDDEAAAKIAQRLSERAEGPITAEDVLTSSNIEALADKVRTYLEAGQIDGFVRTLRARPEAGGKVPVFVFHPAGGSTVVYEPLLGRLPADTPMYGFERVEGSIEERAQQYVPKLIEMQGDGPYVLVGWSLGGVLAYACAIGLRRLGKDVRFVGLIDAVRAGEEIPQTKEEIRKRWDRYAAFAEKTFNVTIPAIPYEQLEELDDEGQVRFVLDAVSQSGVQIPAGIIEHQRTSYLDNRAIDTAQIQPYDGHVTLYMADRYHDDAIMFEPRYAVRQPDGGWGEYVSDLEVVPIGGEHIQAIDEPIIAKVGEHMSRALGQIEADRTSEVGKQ
UniProt Q4DA54, 1-478: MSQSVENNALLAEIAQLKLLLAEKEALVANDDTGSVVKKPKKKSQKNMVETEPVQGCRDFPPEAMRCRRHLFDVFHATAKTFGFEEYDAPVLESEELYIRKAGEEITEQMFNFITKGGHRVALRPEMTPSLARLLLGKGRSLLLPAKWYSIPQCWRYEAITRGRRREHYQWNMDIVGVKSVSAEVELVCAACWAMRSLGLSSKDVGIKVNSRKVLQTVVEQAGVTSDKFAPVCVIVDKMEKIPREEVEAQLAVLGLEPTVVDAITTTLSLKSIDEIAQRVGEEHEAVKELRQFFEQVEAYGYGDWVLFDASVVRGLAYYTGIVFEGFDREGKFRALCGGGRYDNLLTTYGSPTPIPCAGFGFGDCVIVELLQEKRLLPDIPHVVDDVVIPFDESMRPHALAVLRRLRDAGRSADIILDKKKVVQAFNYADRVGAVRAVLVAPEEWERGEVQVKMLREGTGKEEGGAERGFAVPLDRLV
UniProt A4I591, 1-473: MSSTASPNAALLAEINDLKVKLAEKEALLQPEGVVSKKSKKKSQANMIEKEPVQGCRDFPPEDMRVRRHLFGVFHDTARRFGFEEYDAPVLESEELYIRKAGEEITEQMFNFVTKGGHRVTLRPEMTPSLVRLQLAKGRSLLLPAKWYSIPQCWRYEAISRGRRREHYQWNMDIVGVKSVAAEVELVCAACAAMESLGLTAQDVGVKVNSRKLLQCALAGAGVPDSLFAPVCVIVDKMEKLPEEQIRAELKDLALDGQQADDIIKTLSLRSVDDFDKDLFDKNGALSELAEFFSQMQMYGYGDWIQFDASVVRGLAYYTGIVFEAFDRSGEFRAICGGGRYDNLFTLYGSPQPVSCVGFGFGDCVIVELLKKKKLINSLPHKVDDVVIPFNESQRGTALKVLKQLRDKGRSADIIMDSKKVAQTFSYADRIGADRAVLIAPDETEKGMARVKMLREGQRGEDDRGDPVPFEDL

Data taken from ChEMBL document CHEMBL3988442, “University of Dundee, Small-Polar-MMV Screening Library” (2021).

A: 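Enzyme assay of the thioesterase domain of polyketide synthase 13; the read-out is not stated. Target: Polyketide synthase Pks13, Mycobacterium tuberculosis (UniProt I6X8D2). Compounds at 30 µM. Higher reads as stronger inhibition (inferred from which compounds were picked for retests). Of about 67,000 compounds tested this way, about 300 (0.46%) reached 50% or more in at least one test.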
B: 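Enzyme assay of histidyl-tRNA synthetase; the read-out is not stated. Target: Histidine-tRNA ligase, Trypanosoma cruzi CL Brener (UniProt Q4DA54). Concentration: 30 µM. Direction is inferred from retests: higher values go with stronger inhibition. Size under these conditions: about 69,000 compounds, about 31 of them at 50% or above in at least one test.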
C: 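Enzyme assay of histidyl-tRNA synthetase; the read-out is not stated. Target: Histidine-tRNA ligase, Leishmania infantum (UniProt A4I591). Concentration: 30 µM. The record gives no direction; compounds that gave an IC50 in retests scored well above the rest, so higher reads as stronger inhibition. The assay is labelled LdHisRS but filed under L. infantum. Of about 69,000 compounds tested this way, about 410 (0.6%) reached 50% or more in at least one test.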

Values are the deposited “Percent Effect”, in %.
How 0% and 100% were set is not recorded. Most values in the screen are low, and negative values occur.
Compounds were drawn at random from those tested, without regard to their results.

| structure | A | B | C |
|---|---|---|---|
| `Cc1cccc(NC(=O)c2[nH]nc(C(C)C)c2Br)n1` | 73.44 | -0.5814 | 12.5 |
| `Cc1nc(N2CCCC2)nc2c1CN(C(=O)N1CCOCC1)CC2` | 1.89 | 10.53 | 34.15 |
| `CCC(C)(N)c1nc(=O)c(C(C)C)c(C)[nH]1` (stereo not given) | -5.484 | 6.878 | 17.65 |
| `O=C(c1cnccn1)N1CCc2ncnc(C3CCOC3)c2CC1` (stereo not given) | -1.053 | 7.143 | 19 |
| `CC(=O)N1CCCN(C(=O)Nc2ccccc2N2CCOC2=O)CC1` | -23.69 | 9.948 | 6.452 |
| `Cc1cc(=O)[nH]c(-n2nc(C)c(CCC(=O)NCc3ccco3)c2C)n1` | -2.348 | 5.528 | 22.47 |
| `COc1cccc(OC)c1-c1c[nH]c(C)n1` | 4.674 | 4.327 | 21.95 |
| `O=C(c1cn(-c2ccc(F)cc2)nn1)N1CCCC(n2cccn2)C1` (stereo not given) | -16.67 | 8.262 | 17.09 |
| `CCC(O)CN1CCN(C(=O)c2cccc3[nH]ncc23)CC1` (stereo not given) | 6.098 | 0 | 1.887 |
| `O=C(c1cccc2ncccc12)N1CCCC(n2ccnc2)C1` (stereo not given) | -40.34 | 7.059 | 18.35 |
| `O=C(CO)N1CC2(CCN(c3ccccc3)C2)C1` | -1.606 | 3.448 | 0 |
| `NC(=O)c1cccc(CCNCc2cnc(C3CCC3)s2)c1` | -4.153 | 10.92 | 12.28 |
| `CCn1ncc2c1NC(=O)CC2c1cnc(NCc2ccccc2)nc1` (stereo not given) | -0.736 | 1.093 | 19.18 |
| `COc1ccc(OC)c(C(C)NC(=O)Nc2nnc(C)s2)c1` (stereo not given) | -4.966 | 5.814 | 14.75 |
| `Cn1cnc(S(=O)(=O)N2CCCCc3ccccc32)c1` | -7.169 | 2.646 | 14.67 |
| `CN1CCN(C2CCN(Cc3cn4ccccc4n3)CC2)C1=O` | -8.55 | 6.25 | 1.77 |
| `CC[C@H](C)[C@H](NC(=O)Cn1ccc2ccc(F)cc21)C(=O)OC` | -5.869 | 4.167 | 6.25 |
| `Cc1ccc(CNC(=O)CN2CCN(CCO)CC2)s1` | -3.616 | 0 | 12.9 |
| `Cc1nc(-c2ccc(NCCc3ccc(O)cc3)nc2)[nH]c(=O)c1C` | -14 | 5.844 | 22.58 |
| `CCOCc1ncn2c1CN(S(=O)(=O)c1ccc(OC)cc1)CC2` | 0.7634 | 2.97 | 17.81 |
| `CCOC(=O)N1CCNC(c2cccs2)C1` (stereo not given) | -13.37 | 3.125 | 16.67 |
| `COc1cc(N2CC[C@@H]3[C@@H](CC2)OCCN3CC2CC2)ncn1` | -18.72 | 4.42 | 8.108 |
| `COC(=O)c1ccc2c(c1)CCCN2S(=O)(=O)c1cn(C)c(C)n1` | -0.139 | 4.762 | 20 |
| `c1cnc(N2CCCC3(CCN(CC4CCOC4)CC3)C2)nc1` (stereo not given) | 5.521 | 4 | 4.425 |
| `CCNC(=O)NC(C)(C)C(=O)NCc1cccc(N2CC=CC2)c1` | -12.09 | 4.255 | 6.25 |
| `O=C(C1CCCC1)N1C[C@H]2CNC[C@H]2C1` | -47.21 | 2.913 | 3.846 |
| `CCC(=O)N(C)Cc1cccc(OC(C)C)c1` | -18.35 | 3.448 | 4.464 |
| `COc1cccc(CNCCc2cc(F)cc3c2OCOC3)c1` | -12.16 | 0.813 | 10.58 |
| `C=C(C)CN1CCC(NC(=O)Nc2ccc(F)c(C(N)=O)c2)CC1` | -5.143 | 10 | 15.32 |
| `Cn1cnnc1S(=O)(=O)C1CCN(C(=O)c2ccsc2)CC1` | -20.2 | 4.444 | 0.8547 |
| `CCc1ccc(CN2CCN(c3ccc(C#N)cc3)C(=O)C2)nc1` | 0.429 | 10.3 | -11.11 |
| `CN1CCN(C(=O)C2CCN(c3cccnn3)CC2)CC1` | -2.935 | 3.731 | 13.68 |
| `CCn1nc(CC(C)C)cc1C(=O)NCCS(=O)(=O)N(C)C` | -10.34 | 4.523 | 4.494 |
| `COc1ccc(NC(=O)N2CCC3(CC2)NC(=O)CC3C(=O)O)c(C)c1` (stereo not given) | -33.43 | 4.046 | 14.67 |
| `CC(C)(C)c1cnc(CNc2cccc(Cn3cnnc3)c2)o1` | -25.67 | 2.463 | -6.494 |
| `CN(C)C(=O)C1CN(Cc2ccc(C#N)cc2F)c2ccccc2O1` (stereo not given) | -36.62 | 4.712 | 17.24 |
| `CC(C)OCCCNC(=O)Nc1cccc2ncccc12` | -2.339 | -3.247 | 20.97 |
| `Cc1noc(C)c1CN1CCc2cnn(C)c2C1COCC1CC1` (stereo not given) | -14.04 | 8.021 | 17.95 |
| `CCn1c(C)nnc1CN(C)C1CCN(CCc2cccs2)C1` (stereo not given) | -16.6 | 4.082 | 20.97 |
| `Cc1ccc(-n2nnnc2SCN2CCCCC2=O)cc1C` | -28.56 | 1.676 | 5.263 |
| `CN(C)C(=O)NC[C@@H]1OC[C@H]2CN(Cc3cccc(F)c3)CC[C@H]21` | 9.051 | 1.493 | 13.51 |
| `Cc1cnc(C(=O)N2CCCC(n3ccnc3C)C2)cn1` (stereo not given) | -16.02 | 0 | 25.76 |
| `CN(C)CCO[C@H]1C[C@@H](O)C12CCN(c1ncccc1Cl)CC2` | 3.146 | -0.8403 | 6.612 |
| `NC(=O)COc1ccc(CNCc2ccc(F)cc2)cc1` | -8.878 | 4.911 | 16.05 |
| `Cc1cccc(CN2CCc3c(COCC(=O)N(C)C)nn(C)c3C2)n1` | 6.903 | 6.522 | 11.84 |
| `CCOCc1ccc(NC(=O)NC2CCCn3nc(CC)nc32)cc1` (stereo not given) | 3.914 | 7.563 | 8.772 |
| `Cc1cccc(CN2CCN(C(=O)c3cnc(C)[nH]c3=O)CC2)c1` | 4.567 | 3.665 | 12.9 |
| `Cc1nn(C)c(N(C)C)c1CNCc1ccc(OCCN(C)C)cc1` | 3.311 | 3.39 | 0 |
| `COCc1ncn2c1CN(C(=O)C1CC=CC1)CC2` | -5.298 | 7.627 | 24.53 |
| `COc1ccccc1[C@@H]1CN(CC(=O)N2CCCCC2)C[C@H]1C(=O)O` | -28 | 10.58 | 6.061 |
| `Cc1cccc(CNC(C)c2ccc(OCC(=O)NC3CC3)cc2)c1` (stereo not given) | -8.438 | 3.944 | 11.3 |
| `NC1CCc2nc(-c3cccnc3)nc(Nc3ccc(F)cc3)c2C1` (stereo not given) | -3.856 | 7.345 | 20.98 |
| `CC(C)N(C)S(=O)(=O)c1ccc2c(c1)CCN(C(=O)c1cscn1)C2` | -7.257 | 10.45 | 8.434 |

The last 3 entries again:

* Cc1cccc(CNC(C)c2ccc(OCC(=O)NC3CC3)cc2)c1 (stereo not given) | A: -8.438%; B: 3.944%; C: 11.3%
* NC1CCc2nc(-c3cccnc3)nc(Nc3ccc(F)cc3)c2C1 (stereo not given) | A: -3.856%; B: 7.345%; C: 20.98%
* CC(C)N(C)S(=O)(=O)c1ccc2c(c1)CCN(C(=O)c1cscn1)C2 | A: -7.257%; B: 10.45%; C: 8.434%